# In the supplement of paper PMC4635364:
# Structures can show the parent of a compound that is named as a salt. The list shows a part of the results. Single values are uncertain here, since repeats match poorly.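 Cells: ReNCell VM human fetal ventral-midbrain neural progenitors, differentiated mitogen-free. Blinded raters compared doublecortin-stained (early neurons) or tyrosine hydroxylase-stained (dopaminergic neurons) images with untreated wells, where 0 means no change. After repeats and both raters were averaged, compounds scoring 2 or above became hits for retesting.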
# Experiments:
# ReNCell VM [1] = experiment: neuronal differentiation score (DCX+ cell fraction vs untreated, manual image score) (score (-3 to 3)); higher = more neuronal differentiation; conditions: 2 uM, 2 weeks
# ReNCell VM [2] = experiment: dopaminergic neuron differentiation score (TH+ cell fraction vs untreated, manual image score) (score (0 to 3)); higher = more TH+ dopaminergic neuron differentiation; conditions: 2 uM, 4 weeks, BDNF 10 ng/ml + GDNF 10 ng/ml
smiles,measurement,setting,value
COC(=O)C[C@H]1C(C)(C)C(=O)[C@@H]2CC3=C(CC[C@]4(C)C3=CC(=O)O[C@H]4c3ccoc3)[C@@]1(C)C2=O,neuronal differentiation score,ReNCell VM [1]; library: Spectrum,inactive: 0
same,dopaminergic neuron differentiation score,ReNCell VM [2]; library: Spectrum,inactive: 0
CCCCC1CCC(c2nc(-c3ccncc3)no2)CC1 (stereo not drawn),neuronal differentiation score,ReNCell VM [1]; library: Tocriscreen,inactive: 0
same,dopaminergic neuron differentiation score,ReNCell VM [2]; library: Tocriscreen,inactive: 0
"CC(Cc1ccc(O)c(O)c1)C(C)Cc1ccc(O)c(O)c1 (stereo not drawn) [4,4'-(2,3-Dimethyltetramethylene)dipyrocatechol]",neuronal differentiation score,ReNCell VM [1]; library: Phytochemical,inactive: 0
same,dopaminergic neuron differentiation score,ReNCell VM [2]; library: Phytochemical,inactive: 0
Cc1ccc(C)c(OCCCC(C)(C)C(=O)O)c1 [Gemfibrozil],neuronal differentiation score,ReNCell VM [1]; library: Prestwick,inactive: 0
same,dopaminergic neuron differentiation score,ReNCell VM [2]; library: Prestwick,inactive: 0
CCCCC(CC)CCC(CC(C)C)OS(=O)(=O)O (stereo not drawn),neuronal differentiation score,ReNCell VM [1]; library: Spectrum,inactive: 0
same,dopaminergic neuron differentiation score,ReNCell VM [2]; library: Spectrum,inactive: 0
CCN(Cc1ccncc1)C(=O)C(CO)c1ccccc1 (stereo not drawn),neuronal differentiation score,ReNCell VM [1]; library: Spectrum,inactive: 0
same,dopaminergic neuron differentiation score,ReNCell VM [2]; library: Spectrum,inactive: 0
CC(C)[N+](C)(CCOC(=O)C1c2ccccc2Oc2ccccc21)C(C)C,neuronal differentiation score,ReNCell VM [1]; library: Spectrum,inactive: 0
same,dopaminergic neuron differentiation score,ReNCell VM [2]; library: Spectrum,inactive: 0
CN(CCOc1ccc(CC2SC(=O)NC2=O)cc1)c1ccccn1 (stereo not drawn) [Rosiglitazone Hydrochloride],neuronal differentiation score,ReNCell VM [1]; library: Prestwick,inactive: 0
same,dopaminergic neuron differentiation score,ReNCell VM [2]; library: Prestwick,inactive: 0
CC(C)COC(=O)c1ccc(N)cc1,neuronal differentiation score,ReNCell VM [1]; library: Spectrum,inactive: 1
same,dopaminergic neuron differentiation score,ReNCell VM [2]; library: Spectrum,inactive: 1
CCCCN(CCCC)CCCOC(=O)c1ccc(N)cc1,neuronal differentiation score,ReNCell VM [1]; library: Spectrum,inactive: 0
same,dopaminergic neuron differentiation score,ReNCell VM [2]; library: Spectrum,inactive: 0
O=C1OC(c2ccc(O)cc2)(c2ccc(O)cc2)c2ccccc21,neuronal differentiation score,ReNCell VM [1]; library: Spectrum,inactive: 0
same,dopaminergic neuron differentiation score,ReNCell VM [2]; library: Spectrum,inactive: 0
Cc1ccc2c(Br)cc(Br)c(OC(=O)c3ccccc3)c2n1,neuronal differentiation score,ReNCell VM [1]; library: Spectrum,inactive: 0
same,dopaminergic neuron differentiation score,ReNCell VM [2]; library: Spectrum,inactive: 0
O=C1C(Cl)=C(NCCN2CCOCC2)C(=O)c2ncccc21,neuronal differentiation score,ReNCell VM [1]; library: Tocriscreen,inactive: 0
same,dopaminergic neuron differentiation score,ReNCell VM [2]; library: Tocriscreen,inactive: 0
COc1ccc2c(c1)OC[C@@H](Cc1ccc(OC)c(OC)c1)[C@@H]2O,neuronal differentiation score,ReNCell VM [1]; library: Spectrum,inactive: 0
same,dopaminergic neuron differentiation score,ReNCell VM [2]; library: Spectrum,inactive: 1
Cc1cccc(C)c1NC(=O)c1ccccc1C(=O)O,neuronal differentiation score,ReNCell VM [1]; library: Spectrum,inactive: 0
same,dopaminergic neuron differentiation score,ReNCell VM [2]; library: Spectrum,inactive: 1
COc1cc(/C=C(\C#N)C(=O)c2ccc(O)c(O)c2)cc(I)c1O [I-OMe-Tyrphostin AG 538],neuronal differentiation score,ReNCell VM [1]; library: LOPAC,inactive: 0
same,dopaminergic neuron differentiation score,ReNCell VM [2]; library: LOPAC,inactive: 0
"Cc1c(O)c(=O)n(-c2ccccc2)n1C [Antipyrine, 4-hydroxy]",neuronal differentiation score,ReNCell VM [1]; library: Prestwick,inactive: 1
same,dopaminergic neuron differentiation score,ReNCell VM [2]; library: Prestwick,inactive: 0
COc1ccccc1OCC(O)CO (stereo not drawn),neuronal differentiation score,ReNCell VM [1]; library: Spectrum,inactive: 0
same,dopaminergic neuron differentiation score,ReNCell VM [2]; library: Spectrum,inactive: 0
CC(C)[C@H](N)C(=O)OCC(CO)OCn1cnc2c(=O)nc(N)[nH]c21 (stereo partly drawn),neuronal differentiation score,ReNCell VM [1]; library: Spectrum,inactive: 1
same,dopaminergic neuron differentiation score,ReNCell VM [2]; library: Spectrum,inactive: 0
NC(=O)c1ccc[n+]([C@@H]2O[C@H](COP(=O)([O-])OP(=O)(O)OC[C@H]3O[C@@H](n4cnc5c(N)ncnc54)[C@H](O)[C@@H]3O)[C@@H](O)[C@H]2O)c1 [Nadide],neuronal differentiation score,ReNCell VM [1]; library: Prestwick,inactive: 0
same,dopaminergic neuron differentiation score,ReNCell VM [2]; library: Prestwick,inactive: 0
NCCNCCNCCN,neuronal differentiation score,ReNCell VM [1]; library: Spectrum,inactive: 0
same,dopaminergic neuron differentiation score,ReNCell VM [2]; library: Spectrum,inactive: 0
CC(Cc1cccc(C(F)(F)F)c1)NCCOC(=O)c1ccccc1 (stereo not drawn),neuronal differentiation score,ReNCell VM [1]; library: Spectrum,inactive: 0
same,dopaminergic neuron differentiation score,ReNCell VM [2]; library: Spectrum,inactive: 0
CCCCC(=O)O[C@H]1CC[C@H]2[C@@H]3CCc4cc(O)ccc4[C@H]3CC[C@]12C [Estradiol Valerate],neuronal differentiation score,ReNCell VM [1]; library: Prestwick,inactive: 0
same,dopaminergic neuron differentiation score,ReNCell VM [2]; library: Prestwick,inactive: 0
N#C/C(=C/c1ccc(O)c(O)c1)C(=O)NCc1ccccc1 [Tyrphostin AG 490],neuronal differentiation score,ReNCell VM [1]; library: LOPAC,inactive: 0
same,dopaminergic neuron differentiation score,ReNCell VM [2]; library: LOPAC,active: 2
CCc1oc2ccccc2c1C(=O)c1cc(Br)c(O)c(Br)c1 [Benzbromarone],neuronal differentiation score,ReNCell VM [1]; library: Prestwick,inactive: 0
same,dopaminergic neuron differentiation score,ReNCell VM [2]; library: Prestwick,inactive: 0
OCC1OC(n2cnc3c(NCCc4ccccc4)ncnc32)C(O)C1O (stereo not drawn) [N6-2-Phenylethyladenosine],neuronal differentiation score,ReNCell VM [1]; library: LOPAC,inactive: 0
same,dopaminergic neuron differentiation score,ReNCell VM [2]; library: LOPAC,inactive: 0
NC[C@H]1O[C@H](O[C@H]2[C@H](O)[C@@H](O[C@H]3O[C@H](CO)[C@@H](O)[C@H](N)[C@H]3O)[C@H](N)C[C@@H]2N)[C@H](N)C[C@@H]1O [Tobramycin],neuronal differentiation score,ReNCell VM [1]; library: Prestwick,inactive: 0
same,dopaminergic neuron differentiation score,ReNCell VM [2]; library: Prestwick,inactive: 0
CCCCCCCCCCCCCCCCCCCCCCO,neuronal differentiation score,ReNCell VM [1]; library: Spectrum,inactive: 0
same,dopaminergic neuron differentiation score,ReNCell VM [2]; library: Spectrum,inactive: 0
CC(=O)Oc1ccc(C(c2ccc(OC(C)=O)cc2)c2ccccn2)cc1,neuronal differentiation score,ReNCell VM [1]; library: Spectrum,inactive: 0
same,dopaminergic neuron differentiation score,ReNCell VM [2]; library: Spectrum,inactive: 0
COc1cc(C(=O)NCc2ccc(OCCN(C)C)cc2)cc(OC)c1OC,neuronal differentiation score,ReNCell VM [1]; library: Spectrum,inactive: 0
same,dopaminergic neuron differentiation score,ReNCell VM [2]; library: Spectrum,inactive: 0
COc1ccc2[nH]c(=O)c3c(c2c1)OC(C)(C)C=C3 [haplamine],neuronal differentiation score,ReNCell VM [1]; library: Natural,inactive: -1
same,dopaminergic neuron differentiation score,ReNCell VM [2]; library: Natural,inactive: 0
CC1=CC(=O)c2ccccc2C1=O [Menadione],neuronal differentiation score,ReNCell VM [1]; library: Phytochemical,inactive: 0
same,dopaminergic neuron differentiation score,ReNCell VM [2]; library: Phytochemical,active: 3
CC(N)(Cc1ccc(O)cc1)C(=O)O (racemic) [DL-alpha-Methyl-p-tyrosine],neuronal differentiation score,ReNCell VM [1]; library: LOPAC,inactive: 0
same,dopaminergic neuron differentiation score,ReNCell VM [2]; library: LOPAC,inactive: 0
NC1=NCCN1CC(=O)O,neuronal differentiation score,ReNCell VM [1]; library: Spectrum,inactive: 0
same,dopaminergic neuron differentiation score,ReNCell VM [2]; library: Spectrum,inactive: 0

# A second format for part of the listing above:
smiles	measurement	setting	value
CC(C)COC(=O)c1ccc(N)cc1	neuronal differentiation score	ReNCell VM [1]; library: Spectrum	inactive: 1
same	dopaminergic neuron differentiation score	ReNCell VM [2]; library: Spectrum	inactive: 1
CCCCN(CCCC)CCCOC(=O)c1ccc(N)cc1	neuronal differentiation score	ReNCell VM [1]; library: Spectrum	inactive: 0
